This is an account of results in paper PMC5582858, “The yeast kinesin-5 Cin8 interacts with the microtubule in a noncanonical manner” (The Journal of Biological Chemistry, 2017).

These are yes or no findings as the source states them, for the method shown.

This assay has as its target Cin8 motor domain (purified Cin8 protein used for size-exclusion chromatography; construct not named) (S. cerevisiae) (UniProt P27895). Kind of assay: SEC; Superose 6 Increase 10/300, 293 K, 20 mM HEPES pH 7.2, 150 mM potassium chloride, 0.5 ml/min; compared with monomeric Eg5; both purified.

B1: Cin8 motor domain (purified Cin8 protein used for size-exclusion chromatography; construct not named) (domain or fragment, UniProt P27895 70-535)
chain: ISINTTGDTGITAQMNAKRYTVDKVFGPGASQDLIFDEVAGPLFQDFIKGYNCTVLVYGMTSTGKTYTMTGDEKLYNGELSDAAGIIPRVLLKLFDTLELQQNDYVVKCSFIELYNEELKDLLDSNSNGSSNTGFDGQFMKKLRIFDSSTANNTTSNSASSSRSNSRNSSPRSLNDLTPKAALLRKRLRTKSLPNTIKQQYQQQQAVNSRNNSSSNSGSTTNNASSNTNTNNGQRSSMAPNDQTNGIYIQNLQEFHITNAMEGLNLLQKGLKHRQVASTKMNDFSSRSHTIFTITLYKKHQDELFRISKMNLVDLAGSENINRSGALNQRAKEAGSINQSLLTLGRVINALVDKSGHIPFRESKLTRLLQDSLGGNTKTALIATISPAKVTSEETCSTLEYASKAKNIKNKPQLGSFIMKDILVKNITMELAKIKSDLLSTKSKEGIYMSQDHYKNLNSDLESYKN
For B1, the binding entry is “no binding”.
